Data: PubChem BioAssay AID588590 (National Center for Advancing Translational Sciences (NCATS), 2011)
Screen size: about 390,000 compounds; about 4,000 (1%) were called active. The shares of active, inactive and inconclusive entries below differ from those in the screen. Calls come from the whole dose curve; as a rule, active = well fitted inhibition curve with a large enough effect; inconclusive = small, poorly fitted or top-dose-only effect, or another doubt; inactive = no such curve, though single readings can be large or run the other way. A potency beside an inconclusive call is a rough fit, not a confirmed value.

The chains behind the UniProt entries cited, without tags or fusion partners. Where a name states a change or a piece, a line headed by the entry shows the natural chain unless it says otherwise.
UniProt Q9UNA4: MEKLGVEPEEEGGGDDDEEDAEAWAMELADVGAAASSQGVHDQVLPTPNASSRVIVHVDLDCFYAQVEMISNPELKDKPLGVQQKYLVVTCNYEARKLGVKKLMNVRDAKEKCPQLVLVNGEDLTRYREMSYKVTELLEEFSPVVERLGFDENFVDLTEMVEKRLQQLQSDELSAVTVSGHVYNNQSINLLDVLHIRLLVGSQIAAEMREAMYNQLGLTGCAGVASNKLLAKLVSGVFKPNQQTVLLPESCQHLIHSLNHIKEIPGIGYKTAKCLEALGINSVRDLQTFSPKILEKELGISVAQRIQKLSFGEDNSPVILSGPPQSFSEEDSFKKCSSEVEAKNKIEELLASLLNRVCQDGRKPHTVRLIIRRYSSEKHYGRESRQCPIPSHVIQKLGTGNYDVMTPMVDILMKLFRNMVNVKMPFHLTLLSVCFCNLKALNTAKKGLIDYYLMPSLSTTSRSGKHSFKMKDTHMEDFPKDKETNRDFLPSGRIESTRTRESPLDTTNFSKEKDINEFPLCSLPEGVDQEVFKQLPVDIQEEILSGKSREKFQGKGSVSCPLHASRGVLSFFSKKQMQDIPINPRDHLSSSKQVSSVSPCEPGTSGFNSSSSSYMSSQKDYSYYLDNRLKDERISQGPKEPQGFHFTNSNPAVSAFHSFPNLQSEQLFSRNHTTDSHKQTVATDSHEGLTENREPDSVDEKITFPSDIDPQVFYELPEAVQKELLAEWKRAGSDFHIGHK

What follows are compounds tested against DNA polymerase iota (Homo sapiens) (UniProt Q9UNA4) (assay: qHTS for Inhibitors of Polymerase Iota). Conditions: Pol iota fluorescent replication assay, 10 min; series mostly up to 115 µM.
Method in brief: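 Fluorescent replication assay read twice, at 0 min and 10 min after adding 50 nM (final) substrate. Enzyme (10 nM) and compounds were first incubated 15 min at room temperature; enzyme-free buffer wells were negative controls.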
Potency is the fitted concentration of half-maximal effect.

| SMILES | Potency |
| --- | --- |
| O=C(Nc1ccccc1Oc1ccsc1C(=O)O)c1ccccc1F | inconclusive: 20 µM [inhibitor, partial curve] |
| Nc1ccc(/C=C/c2ccc3cccnc3c2)cc1 | inactive |
| CC(=O)NC(C)CCc1ccccc1 (stereo not given) | inconclusive: 79.4 µM [inhibitor, partial curve, poor fit] |
| O=C(O)c1cccc(-c2ccc(/C=N/NC(=O)c3cccnc3)o2)c1 | inconclusive: 35.5 µM [inhibitor, full curve] |
| O=C(COC(=O)/C=C/c1ccc(F)cc1)NCc1ccc2c(c1)OCO2 | inactive |
| CN(C(=O)OCc1ccccc1)C(CC(N)=O)C(=O)O (stereo not given) | inconclusive: 112 µM [inhibitor, single point] |
| COc1ncnc2c1NC1=C(S2)C(=NCCC(=O)O)CC(C)(C)C1 | inconclusive: 39.8 µM [inhibitor, partial curve, poor fit] |
| CS(=O)(=O)N(CC(=O)NCc1ccco1)c1ccc(OCc2ccccc2)cc1 | inconclusive: 35.5 µM [inhibitor, partial curve, poor fit] |
| COc1ccc(-n2nc(C(=O)NCC(=O)NCc3ccc(F)cc3)c3ccccc3c2=O)cc1OC | inconclusive: 31.6 µM [inhibitor, single point] |
| CC(C)(C)Cc1nnc(NC(=O)CSc2ccccc2)s1 | inconclusive: 17.8 µM [inhibitor, partial curve, poor fit] |
| NS(=O)(=O)c1ccc(CNC(=O)/C=C/c2ccco2)cc1 | inconclusive: 20 µM [inhibitor, partial curve, poor fit] |
| Cc1ccc(C)c2c1c1ccccc1n2C | inactive |
| CN(C)C1=NCCN1CCCC1CCCCC1 | inconclusive: 15.8 µM [inhibitor, partial curve, poor fit] |
| Cc1ccc(NC(=O)c2nc(S(C)(=O)=O)ncc2N(Cc2ccc(C(C)(C)C)cc2)Cc2ccco2)cc1C | inactive |
| Cc1cc(C)c(S(=O)(=O)c2ccccc2)c(OC(=O)c2c(F)cccc2F)n1 | inconclusive: 39.8 µM [inhibitor, single point] |
| C#CCOCCOCCOCCNc1nc(N2CCN(C(=O)[C@H](CCCCN)n3cc(CCCC)nn3)CC2)nc(N2CCN(C(=O)[C@H](Cc3ccc(O)cc3)n3cc(CCO)nn3)CC2)n1 | inconclusive: 17.8 µM [inhibitor, partial curve, poor fit] |
| O=S(=O)(Nc1ccncc1Cl)c1cc(Cl)ccc1Cl | inconclusive: 10 µM [inhibitor, partial curve] |
| CC(C)(C)c1ccc(OCCCC(=O)NNC(=O)c2ccccc2O)cc1 | inconclusive: 70.8 µM [inhibitor, single point] |
| CN1CCN(c2ccc(S(=O)(=O)N3CCCCC3)cc2NC(=O)Cc2ccc(Cl)cc2)CC1 | inconclusive: 89.1 µM [inhibitor, single point] |
| CCC(=O)N1CCCc2cc(S(=O)(=O)N3CCN(c4ncccn4)CC3)ccc21 | inconclusive: 1 µM [inhibitor, full curve, poor fit] |
| COC(=O)c1c(NC(=O)CN2C(=O)NC3(CCC(C)CC3)C2=O)sc2c1CCC2 (stereo not given) | inconclusive: 10 µM [inhibitor, partial curve, poor fit] |
| O=c1c(/C=C(\O)c2ccc(F)cc2)nc2ccccc2n1-c1ccccc1 | inconclusive: 89.1 µM [inhibitor, single point] |

| SMILES | Potency |
| --- | --- |
| O=C(O)c1ccc(CSc2nc3ccc(NC(=O)c4ccccc4C(=O)O)cc3s2)cc1 | inconclusive: 25.1 µM [inhibitor, partial curve, poor fit] |
| CC(=O)c1cccc(NC(=O)C(C)OC(=O)CNC(=O)c2ccc(C)s2)c1 (stereo not given) | inconclusive: 12.6 µM [inhibitor, full curve, poor fit] |
| O=C(C[n+]1ccc(/C=C/c2c[nH]c3ccccc23)c2ccccc21)c1ccccc1 | inactive |
| Nc1c(S(=O)(=O)O)cc(NC(=O)c2ccccc2)c2c1C(=O)c1ccccc1C2=O | inconclusive: 1 µM [inhibitor, full curve] |
| CCCNS(=O)(=O)c1ccc(NC(=O)Cc2cccs2)cc1 | inactive |
| Cc1c(C)c2ccc(OCC(=O)Nc3ccccn3)cc2oc1=O | inconclusive: 0.631 µM [inhibitor, full curve, poor fit] |
| COc1cc(Br)cc(/C=N/c2ncn[nH]2)c1O | inconclusive: 20 µM [inhibitor, full curve] |
| CC(C)n1c(=O)c2c(O)cc(=O)oc2c2ccccc21 | inconclusive: 14.1 µM [inhibitor, full curve, poor fit] |
| Cc1ccc(OCC(=O)c2ccc(Cl)s2)c([N+](=O)[O-])n1 | inconclusive: 8.91 µM [inhibitor, full curve, poor fit] |
| Cc1nn(-c2ccccc2)c2c1C(c1ccc(O)c(O)c1)N1C(=N2)C(Nc2ccccc2)=Nc2ccccc21 (stereo not given) | inactive |
| CC1(C(=O)OCC(=O)Nc2cc(S(=O)(=O)N3CCOCC3)ccc2Cl)CC1(Cl)Cl (stereo not given) | inconclusive: 28.2 µM [inhibitor, single point] |
| Cc1nn(Cc2cccc(F)c2)c(C)c1NC(=O)c1ccc(COc2ccccc2Cl)cc1 | inconclusive: 5.62 µM [inhibitor, partial curve, poor fit] |
| CC(C)(C)C1CCc2c(sc(NC(=O)c3cc4ccccc4c(=O)o3)c2C(N)=O)C1 (stereo not given) | inactive |
| COc1ccc(-c2csc(NC(=O)C(CC(=O)O)N3CCOCC3)n2)cc1 (stereo not given) | inconclusive: 39.8 µM [inhibitor, single point] |
| COc1ccc(C(=O)C[n+]2cccc3cc(C)ccc32)cc1 | inactive |
| O=C(CCn1c(=O)oc2cc(Cl)ccc21)Nc1ccc(N2CCOCC2)cc1 | inactive |
| O=c1cc(Cl)[nH]c(=O)n1Cc1ccccc1 | inactive |
| Cc1ccc(-c2nc(C)c(CCNC(=O)c3cccs3)s2)cc1 | inconclusive: 100 µM [inhibitor, single point] |
| CCC(C)(C)NC(=O)C(c1ccc(O)cc1)N(C(=O)Cn1nnc2ccccc21)c1ccc(NC(C)=O)cc1 (stereo not given) | inconclusive: 100 µM [inhibitor, single point] |
| COc1cc(C(=O)Nc2ccccc2-c2nc(-c3ccccc3)no2)cc(OC)c1OC | inconclusive: 89.1 µM [inhibitor, single point] |
| CC(C)c1ccc(NC(=O)C2CCN(C(=O)c3ccc(F)cc3)CC2)cc1 | inactive |
| CCc1ccc(C(=O)COC(=O)CNC(=O)C2CCCCC2)cc1 | inconclusive: 89.1 µM [inhibitor, single point] |

| SMILES | Potency |
| --- | --- |
| COc1ccc(N2CC(C(=O)Nc3nnc(SCC(=O)NCC4CCCO4)s3)CC2=O)cc1 (stereo not given) | inconclusive: 20 µM [inhibitor, full curve, poor fit] |
| CN1CCN(CC(=O)C23CC4CC(CC(C4)C2)C3)CC1 | inconclusive: 15.8 µM [inhibitor, full curve, poor fit] |
| CC1=C(C(=O)OCc2ccccc2)C(c2ccc(C(C)(C)C)cc2)NC(=O)N1CCCCCC(=O)O (stereo not given) | inconclusive: 10 µM [inhibitor, partial curve, poor fit] |
| O=C(CSc1nnc2c(n1)[nH]c1ccccc12)Nc1ccc(N2CCOCC2)cc1 | inconclusive: 35.5 µM [inhibitor, single point] |
| c1ccc2c(c1)COC(CNC1CCCCC1)OC2 | inactive |
| CCCCC1NC(C(=O)O)CS1 (stereo not given) | inactive |
| COc1ccc(Cc2nc3c([nH]2)c(=O)n(C)c(=O)n3C)cc1OC | inconclusive: 89.1 µM [inhibitor, partial curve, poor fit] |
| O=C(COC(=O)Cc1cccc(C(F)(F)F)c1)NCc1ccco1 | inconclusive: 15.8 µM [inhibitor, partial curve, poor fit] |
| O=C1CS/C(=N/N=C/c2ccccc2)N1c1ccc(O)cc1 | inactive |
| COC(=O)C1=C(C)N(CCCC(=O)O)C(=O)NC1c1ccc(Br)cc1 (stereo not given) | inconclusive: 20 µM [inhibitor, single point] |
| O=C(O)c1ccc(-c2noc(-c3cccc(C(F)(F)F)c3)n2)cc1 | inconclusive: 39.8 µM [inhibitor, single point] |
| COc1ccccc1N1CCN(CC(O)COc2ccc(Cl)c(C)c2)CC1 (stereo not given) | inconclusive: 17.8 µM [inhibitor, partial curve, poor fit] |
| CCN(c1ccc(OC)cc1)S(=O)(=O)c1ccc2[nH]c3c(c2c1)CCCCC3 | active: 79.4 µM |
| CC1CC=CC2C1C(=O)N(Cc1ccccc1)C2c1ccc(-c2ccc(N(C)C)cc2)cc1F (stereo not given) | inactive |
| COC(=O)c1ccc(NC(=O)Cn2c(=O)oc3ccccc32)cc1 | inactive |
| Cc1ccc(-c2nnc(Nc3ccc(OCC(N)=O)cc3)c3ccccc23)cc1S(N)(=O)=O | inconclusive: 22.4 µM [inhibitor, single point] |
| CC(C)Nc1nnc(SCc2cc(=O)n3ccsc3n2)s1 | inconclusive: 56.2 µM [inhibitor, partial curve, poor fit] |
| COc1cc(NC2c3ccccc3C(=O)N2Cc2ccccc2Cl)cc(OC)c1 (stereo not given) | inconclusive: 7.94 µM [inhibitor, partial curve, poor fit] |
| Cc1ccccc1CNC(=O)Cn1c(=O)c2cccn2c2cccnc21 | inconclusive: 100 µM [inhibitor, single point] |
| N#Cc1c(SCC(=O)Nc2nccs2)sc2c(O)cc(=O)[nH]c12 | active: 12.6 µM |
| O=C(NN1C(=O)c2ccccc2NC1c1cccnc1)c1ccc([N+](=O)[O-])cc1 (stereo not given) | inconclusive: 28.2 µM [inhibitor, single point] |
